Data: paper doi:10.1101/2024.06.13.598619
No constants are given. Whether binding was seen depends on the method and setting. Binding seen in cells or lysates may run through a third protein. Some results given as binding are weak or reduced against the parent protein; the word gives no strength.

Protein sequences, listed by entry. Tags and fused reporters are not part of them.
UniProt O95721: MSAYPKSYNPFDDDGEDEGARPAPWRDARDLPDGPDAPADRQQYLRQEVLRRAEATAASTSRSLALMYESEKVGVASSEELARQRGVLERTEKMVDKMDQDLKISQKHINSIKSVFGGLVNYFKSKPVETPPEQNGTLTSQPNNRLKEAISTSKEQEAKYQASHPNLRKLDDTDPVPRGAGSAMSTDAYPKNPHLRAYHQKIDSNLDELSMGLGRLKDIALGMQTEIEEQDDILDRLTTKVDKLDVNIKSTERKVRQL
UniProt P56962: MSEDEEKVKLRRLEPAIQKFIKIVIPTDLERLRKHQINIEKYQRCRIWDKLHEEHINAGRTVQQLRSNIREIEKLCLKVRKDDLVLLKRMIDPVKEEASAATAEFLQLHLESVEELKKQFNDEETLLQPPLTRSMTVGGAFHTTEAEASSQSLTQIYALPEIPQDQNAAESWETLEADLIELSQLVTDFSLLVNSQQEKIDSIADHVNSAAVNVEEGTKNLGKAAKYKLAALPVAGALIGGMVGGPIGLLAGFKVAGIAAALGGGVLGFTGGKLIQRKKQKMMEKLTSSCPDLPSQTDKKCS

Molecular target: Myc-tagged human SNAP29 (synaptosomal-associated protein 29) (human) (UniProt O95721)
Experiment: co-IP

Substance: HA-tagged syntaxin17 (STX17) (from UniProt P56962 1-302)
- binding: binds
